Counter-ions that a name gives are not always drawn. The list shows a part of the results. The calls rarely recur for the same compound in another form.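 Kinases were expressed as nanoluciferase fusions in K562 cells and luminescence was read every 4 h between 2 and 18 h as percent of control, DMSO set to 100% and a positive control to 0%. A time point counts as decreased when the signal drops significantly (2 sigma). The hit call is the authors' own, does not follow from the count of time points alone, and its rule is not shown.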
Molecular target: RIOK1 (UniProt Q9BRS2)
Test: number of time points (of 5) at which kinase-Nluc abundance scored as decreased, DMSO-normalised (count); higher = more persistent destabilization
Conditions: K562; 2-18 h

The chains behind the UniProt entries cited, without tags or fusion partners. Where a name states a change or a piece, a line headed by the entry shows the natural chain unless it says otherwise.
UniProt Q9BRS2: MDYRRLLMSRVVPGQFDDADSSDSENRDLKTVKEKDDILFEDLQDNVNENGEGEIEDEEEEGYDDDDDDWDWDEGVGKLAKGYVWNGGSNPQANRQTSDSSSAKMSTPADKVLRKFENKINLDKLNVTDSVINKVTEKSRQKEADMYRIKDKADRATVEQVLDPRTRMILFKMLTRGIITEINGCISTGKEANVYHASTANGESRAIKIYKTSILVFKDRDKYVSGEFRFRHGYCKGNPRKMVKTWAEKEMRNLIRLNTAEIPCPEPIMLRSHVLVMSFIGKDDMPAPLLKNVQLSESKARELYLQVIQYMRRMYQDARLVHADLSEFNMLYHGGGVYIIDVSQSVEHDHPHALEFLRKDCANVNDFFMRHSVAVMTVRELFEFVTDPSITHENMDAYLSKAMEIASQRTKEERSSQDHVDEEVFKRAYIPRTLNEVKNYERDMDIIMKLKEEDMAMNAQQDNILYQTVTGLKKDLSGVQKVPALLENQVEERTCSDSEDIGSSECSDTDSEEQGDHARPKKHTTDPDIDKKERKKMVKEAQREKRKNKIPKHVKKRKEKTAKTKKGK

Q: With `C[C@@H]1COCCN1c1nc(-c2cnc(N)cc2C(F)F)nc(N2[C@H](C)COC[C@@H]2C)n1` (2.5 µM) as the compound, how does the “number of time points” value read?
A: 0

Q: `O=C(O)c1cc(=O)c2c(OCC(O)COc3cccc4oc(C(=O)O)cc(=O)c34)cccc2o1` [Cromolyn (sodium)] (10 µM) was tested. Which “number of time points” value did it give?
A: 0

Q: Which “number of time points” value does the source give for `CCc1ccc(OCC(=O)Nc2ccc(F)c([N+](=O)[O-])c2)cc1` (10 µM) here?
A: 0

Q: Which “number of time points” value does the source give for `CC(C)S(=O)(=O)c1ccc2nccc(Nc3ccc4scnc4c3)c2c1` (10 µM) here?
A: 0

Q: For `CN1CC[C@@H](c2c(O)cc(O)c3c(=O)cc(-c4ccc(C(F)(F)F)cc4Cl)oc23)[C@@H]1CO` [Voruciclib (hydrochloride)] (10 µM), which “number of time points” value is on record?
A: 0

Q: With `CC(C)=CC(=O)O[C@H]1Cc2cc3ccc(=O)oc3cc2OC1(C)C` [Decursin] (10 µM) as the compound, how does the “number of time points” value read?
A: 0

Q: `CC(C)C[C@@H](C(=O)Nc1ccn(C[C@@H](O)CO)n1)N1CC(Oc2ccccc2Cl)=CC1=O` [Dorzagliatin] (10 µM) was tested. Which “number of time points” value did it give?
A: 0

Q: For `CC(C)N1CCN(c2ccc(Nc3ncc4cc5n(c4n3)C3(CCCCC3)CNC5=O)nc2)CC1` [Lerociclib (dihydrochloride)] (2 µM), which “number of time points” value is on record?
A: 2

Q: For `CCCCCCCCCCCCCCCCOP(=O)([O-])OCC[N+](C)(C)C` [Miltefosine] (10 µM), which “number of time points” value is on record?
A: 0

Q: Which “number of time points” value does the source give for `COCCNc1cc(NC(=O)N2CCCc3cc(CN4CCN(C)CC4=O)c(C=O)nc32)ncc1C#N` [Roblitinib] (10 µM) here?
A: 0

Q: With `Cc1ccc(NC(=O)c2ccc(CN(CCN(C)C)C(=O)c3cccnc3)cc2)cc1Nc1nccc(-c2cccnc2)n1` [PDGFRα kinase inhibitor 1] (10 µM) as the compound, how does the “number of time points” value read?
A: 0

Q: For `c1ccc(-c2nc(=NCCN3CCOCC3)sn2-c2ccccc2)cc1` [VP3.15 (dihydrobromide)] (10 µM), which “number of time points” value is on record?
A: 0

Q: `O=C1NC(=Nc2c(Cl)cccc2Cl)S/C1=C\c1ccc2nccnc2c1` (2.5 µM) was tested. Which “number of time points” value did it give?
A: 0

Q: With `Cc1cc(-c2ccnc(Nc3cnn(C)c3)n2)ccc1CNC(=O)N1CC(OC(C)C)C1` (10 µM) as the compound, how does the “number of time points” value read?
A: 0

Q: How did the “number of time points” value turn out when `CN(C)S(=O)(=O)c1ccc2c(c1)/C(=C/c1cc3c([nH]1)CCCC3)C(=O)N2` (2.5 µM) was run?
A: 0

Q: `Cc1cnc(NC2CCOCC2)nc1-n1cnc(C(=O)N[C@H](CN)c2cc(F)cc(Cl)c2)c1` (10 µM) was tested. Which “number of time points” value did it give?
A: 0

Q: With `N#CC(c1ccnc(OCc2ccc(CN3CCOCC3)cc2)n1)c1nc2ccccc2s1` (stereo not drawn) [Bentamapimod] (2.5 µM) as the compound, how does the “number of time points” value read?
A: 0

Q: For `Cc1c(-c2ccc(C(N)=O)c3[nH]c4cc(C(C)(C)O)ccc4c23)cccc1-n1cnc2ccccc2c1=O` (2.5 µM), which “number of time points” value is on record?
A: 0

Q: With `CN(C)c1nc2c(Br)c(Br)c(Br)c(Br)c2[nH]1` (10 µM) as the compound, how does the “number of time points” value read?
A: 0

Q: `Nc1ncnc2c1c(-c1ccc(Oc3ccccc3)cc1)nn2C1CCN(CCOCCOCCOc2ccc3c(c2)CN(C2CCC(=O)NC2=O)C3=O)CC1` (stereo not drawn) (2.5 µM) was tested. Which “number of time points” value did it give?
A: 0

Q: Which “number of time points” value does the source give for `O=[N+]([O-])c1ccc(Nc2nc(N3CCOCC3)nc(N3CCOCC3)n2)cc1` (10 µM) here?
A: 0

Q: For `C[C@H](Nc1ncnc2[nH]cnc12)c1cc2ccc(F)cc2nc1-c1ccccn1` (10 µM), which “number of time points” value is on record?
A: 0

Q: How did the “number of time points” value turn out when `CCc1cccc(CC)c1NC(=O)N1Cc2[nH]nc(NC(=O)c3ccc(N4CCN(C)CC4)cc3)c2C1` (2.5 µM) was run?
A: 2

Q: `CCc1cncnc1N1CCN(Cc2nc3ccc(C(F)(F)F)cc3[nH]2)CC1` (10 µM) was tested. Which “number of time points” value did it give?
A: 0

Q: With `COc1cc(-c2cn[nH]c2)ccc1C(=O)Nc1ccc2c(c1)CCNCC2` (10 µM) as the compound, how does the “number of time points” value read?
A: 0

Q: For `Cn1cc2cc(C(F)(F)c3nnc4ccc(-c5cnn(C6CC6)c5)nn34)c(F)cc2n1` [Bozitinib] (10 µM), which “number of time points” value is on record?
A: 0

Q: With `O=Nc1c2[nH]c3ccccc3nc-2c2ccccc12` [IQ-1S (free acid)] (2.5 µM) as the compound, how does the “number of time points” value read?
A: 0

Q: With `CCN(CC)c1cc2oc(=O)c(-c3nc4ccccc4o3)cc2cc1C` (2.5 µM) as the compound, how does the “number of time points” value read?
A: 0

Q: `COc1cc(N2CCOCC2)ccc1NC(=O)c1csc(-c2cccnc2)n1` [IRAK inhibitor 6] (10 µM) was tested. Which “number of time points” value did it give?
A: 0

Q: With `CNc1nc(Nc2cn(C(C)(C)C#N)nc2C)ncc1C(F)(F)F` (10 µM) as the compound, how does the “number of time points” value read?
A: 0

Q: `COc1nn(C)cc1Nc1nccc(-c2c[nH]c3c(NC(=O)[C@@H](C)N4CCN(C)CC4)cccc23)n1` (10 µM) was tested. Which “number of time points” value did it give?
A: 0

Q: For `N#Cc1ccnc(Nc2cc(C3CCN(C4COC4)CC3)cc(N3CCC(F)(F)C3)n2)c1` (2.5 µM), which “number of time points” value is on record?
A: 0

Q: How did the “number of time points” value turn out when `Cc1cccc2c3c(ccc12)C(=O)C1=C(OCC1C)C3=O` (stereo not drawn) [Dihydroisotanshinone I] (2.5 µM) was run?
A: 0

Q: How did the “number of time points” value turn out when `CNc1nc(Nc2ccc(C(=O)N3CCOCC3)cc2OC)ncc1Cl` (2.5 µM) was run?
A: 0

Q: For `CCN(CC)c1ccc2cc(-c3nc4cc(C)ccc4o3)c(=O)oc2c1` (10 µM), which “number of time points” value is on record?
A: 0

Q: `COc1ccccc1C(=O)/C=C/c1ccccc1C(=O)O` (10 µM) was tested. Which “number of time points” value did it give?
A: 0

Q: How did the “number of time points” value turn out when `CC(=O)N1CCC(c2cc(-c3ccc(NC(=O)c4cccn(-c5ccc(F)cc5)c4=O)cc3F)c3c(N)ncnn23)CC1` (0.5 µM) was run?
A: 0

Q: With `O[C@@H]1CO[C@H]2[C@@H]1OC[C@H]2Oc1nc2nc(-c3ccc(-c4ccccc4)cc3)c(Cl)cc2[nH]1` (10 µM) as the compound, how does the “number of time points” value read?
A: 0
